The target of assay [1] is T1, mouse MET extracellular domain (ECD) (mouse, UniProt P16056 25-931).
T1 construct: range 1-931; recombinant ECD; also called mMET; mouse MET ECD
The assay can be described thus: ELISA, MET ECD in solid phase. (An ELISA detects its analyte on a solid surface through an enzyme-linked reagent.)

Assay [2] has as its target T2, human MET extracellular domain (ECD) (human, UniProt P08581 25-932).
T2 construct: range 1-932; recombinant ECD; also called hMET; human MET ECD
The assay can be described thus: ELISA, MET ECD in solid phase.

For the next assay, the target named is llama MET ECD (llama). The experiment in a line: ELISA, protein in solid phase.
Assay [3] deals with llama-human MET chimeric protein CH5. The experiment in a line: ELISA, protein in solid phase.
Assay [4] has as its target llama-human MET chimeric protein CH4. The assay can be described thus: ELISA, protein in solid phase.
Assay [5] concerns the target llama-human MET chimeric protein CH1. The experiment in a line: ELISA, protein in solid phase, mAb 0-20 nM.
Assay [6] concerns the target llama-human MET chimeric protein CH7. The assay can be described thus: ELISA, protein in solid phase, mAb 0-20 nM.
The target in assay [7] is llama-human MET chimeric protein CH2. The assay can be described thus: ELISA, protein in solid phase, mAb 0-20 nM.
The target in assay [8] is llama-human MET chimeric protein CH3. The assay can be described thus: ELISA, protein in solid phase, mAb 0-20 nM.
Assay [9] deals with llama-human MET chimeric protein CH6. The experiment in a line: ELISA, protein in solid phase, mAb 0-20 nM.
Assay [10] deals with T2, human MET extracellular domain (ECD). The assay can be described thus: ELISA, protein in solid phase, mAb 0-20 nM.
The target of assay [11] is llama-human MET chimeric protein CH3. The assay can be described thus: ELISA, protein in solid phase.
Assay [12] concerns the target llama-human MET chimeric protein CH7. The experiment in a line: ELISA, protein in solid phase.
Assay [13] concerns the target llama-human MET chimeric protein CH6. The assay can be described thus: ELISA, protein in solid phase.
Assay [14] has as its target llama-human MET chimeric protein CH5. The assay can be described thus: ELISA, protein in solid phase, mAb 0-20 nM.
Assay [15] concerns the target llama-human MET chimeric protein CH4. The assay can be described thus: ELISA, protein in solid phase, mAb 0-20 nM.

These are yes or no findings as the source states them, for the method shown. For some of these results: Binding can be weak; no strength is given.

B1: chimeric llama-human IgG1 mAb 71G2 (antibody, V domains shown)
VH: EVQLQESGGGLVQPGGSLRLSCAASGFTFSIYDMSWVRQAPGKGLEWVSTINSDGSSTSYVDSVKGRFTISRDNAKNTLYLQMNSLKPEDTAVYYCAKVYGSTWDVGPMGYGMDYWGKGTLVTVSS
VL: SSALTQPSALSVSLGQTARITCQGGSLGSSYAHWYQQKPGQAPVLVIYGDDSRPSGIPERFSGSSSGGTATLTISGAQAEDEDDYYCQSTDSSGNTVFGGGTRLTVL
On to B1, for which the binding result in assay [1] is reported as “binds”; in assay [2], “binds”; with llama MET ECD (llama), “no binding (tested: 0-20 nM)”; in [3], “no binding (tested: 0-20 nM)”; in [4], “no binding (tested: 0-20 nM)”; in assay [5] it was “binds”. The binding entry in [6], in assay [7], in [8], in [9] and in assay [10] was “binds” each time.

B2: chimeric llama-human IgG1 mAb 72F8 (antibody, V domains shown)
VH: ELQLVESGGGLVQPGGSLRLSCAASGFTFSNYVMSWVRQAPGKGLEWVSDTNSGGSTSYADSVKGRFTISRDNAKNTLYLQMNSLKPEDTALYYCARSFFYGMNYWGKGTQVTVSS
VL: QSALTQPPSLSASPGSSVRLTCTLSSGNNIGSYDISWYQQKAGSPPRYLLNYYTDSRKHQDSGVPSRFSGSKDASANAGLLLISGLQPEDEADYYCSAYKSGSYRWVFGGGTHVTVL
For B2, the binding entry in assay [1] was “binds”; in assay [2], “binds”; in [11], “no binding (tested: 0-20 nM)”; in the assay with llama MET ECD (llama), “no binding (tested: 0-20 nM)”; in [3], “no binding (tested: 0-20 nM)”; in [4], “no binding (tested: 0-20 nM)”. Besides, the binding result in assay [5], in assay [6], in assay [7], in assay [9] and in [10] was “binds” throughout.

B3: chimeric llama-human IgG1 mAb 76G7 (antibody, V domains shown)
VH: QVQLVESGGNLVQPGGSLRLSCAASGFTFSNYYMSWVRQAPGKGLEWVSDIYSDGSTTWYSDSVKGRFTISRDNAKNTLSLQMNSLKSEDTAVYYCARVKIYPGGYDAWGQGTQVTVSS
VL: QAGLTQPPSVSGSPGKTVTISCAGNSSDVGYGNYVSWYQQFPGMAPKLLIYLVNKRASGITDRFSGSKSGNTASLTISGLQSEDEADYYCASYTGSNNIVFGGGTHLTVL
For the molecule B3, the binding result in [1] was “binds”; in [2], “binds”; in assay [12] it was “no binding (tested: 0-20 nM)”; with llama MET ECD (llama) it was “no binding (tested: 0-20 nM)”; in assay [13], “no binding (tested: 0-20 nM)”; in assay [5], “binds”. Besides, the binding result in [7], in assay [8], in assay [14], in assay [15] and in assay [10] was “binds” in each case.

B4: chimeric llama-human IgG1 mAb 71G3 (antibody, V domains shown)
VH: QVQLVESGGGLVQPGGSLRVSCAASGFTFSTYYMSWVRQAPGKGLEWVSDIRTDGGTYYADSVKGRFTMSRDNAKNTLYLQMNSLKPEDTALYYCARTRIFPSGYDYWGQGTQVTVSS
VL: QAVVTQEPSLSVSPGGTVTLTCGLSSGSVTTSNYPGWFQQTPGQAPRTLIYNTNSRHSGVPSRFSGSISGNKAALTIMGAQPEDEADYYCSLYPGSTTVFGGGTHLTVL
Regarding B4, the binding result in assay [1] was “binds”; in assay [2], “binds”; in assay [12], “no binding (tested: 0-20 nM)”; with llama MET ECD (llama) it was “no binding (tested: 0-20 nM)”; in [13], “no binding (tested: 0-20 nM)”; in assay [5] it was “binds”. The binding result in assay [7], in assay [8], in [14], in [15] and in assay [10] was “binds” throughout.

B5: chimeric llama-human IgG1 mAb 76H10 (antibody, V domains shown)
VH: QLQLVESGGGLVQPGGSLRVSCTASGFTFNTYYMTWVRQAPGKGLEWVSDINSGGGTYYADSVKGRFTISRDNAKNTLYLQMNSLKPEDTALYYCVRVRIWPVGYDYWGQGTQVTVSS
VL: QAVVTQEPSLSVSPGGTVTLTCGLSSGSVTTSNYPGWFQQTPGQAPRTLIYNTNNRHSGVPSRFSGSISGNKAALTITGAQPEDEADYYCSLYTGSYTTVFGGGTHLTVL
Regarding B5, the binding result is recorded as “binds” in assay [1]; “binds” in assay [2]; “no binding (tested: 0-20 nM)” in [12]; “no binding (tested: 0-20 nM)” with llama MET ECD (llama); “no binding (tested: 0-20 nM)” in assay [13]; “binds” in assay [5]. For the same molecule, the binding entry in assay [7], in [8], in assay [14], in assay [15] and in [10] was “binds” throughout.
